Assay results as given in PMC11953741.
Results are given in words; binding and its absence hold for the method and conditions named. Binding seen in cells or lysates may run through a third protein. Some results given as binding are weak or reduced against the parent protein; the word gives no strength. Tags and fused reporters may be left off the sequences shown.

By UniProt entry, the sequences of proteins in these tests, tags left out.
UniProt P33895: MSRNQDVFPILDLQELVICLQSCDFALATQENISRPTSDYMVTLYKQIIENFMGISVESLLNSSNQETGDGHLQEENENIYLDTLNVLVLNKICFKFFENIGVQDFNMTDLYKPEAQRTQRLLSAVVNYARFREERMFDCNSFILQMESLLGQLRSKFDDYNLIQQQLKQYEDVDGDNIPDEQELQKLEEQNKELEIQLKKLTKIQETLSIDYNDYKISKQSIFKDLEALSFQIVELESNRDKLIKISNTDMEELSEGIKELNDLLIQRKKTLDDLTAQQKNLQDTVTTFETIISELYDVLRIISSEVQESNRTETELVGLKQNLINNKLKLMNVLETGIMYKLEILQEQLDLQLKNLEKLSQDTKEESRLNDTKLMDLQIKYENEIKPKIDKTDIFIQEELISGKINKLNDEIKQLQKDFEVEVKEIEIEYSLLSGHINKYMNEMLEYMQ

Target: T1, Dad1-3Flag (Dam1 complex component Dad1) (S. cerevisiae) (UniProt Q12248)
T1 sequence: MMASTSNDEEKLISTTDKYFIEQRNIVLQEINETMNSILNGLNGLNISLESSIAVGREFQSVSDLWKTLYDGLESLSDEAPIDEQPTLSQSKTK
Test: co-IP; Flag immunoprecipitation of Dad1-3Flag from benzonase-treated yeast extracts (anti-Flag M3DK on Protein G Dynabeads, 3 h at 4 °C, Buffer H/0.15 with 150 mM KCl, pH 8.0), eluted with 3x M3DK peptide, silver-stained SDS-PAGE

binding: binds
Substance: Nuf2-3V5 (S. cerevisiae Nuf2 kinetochore protein, wild type) (from UniProt P33895 1-451)
